Results published in paper PMC4441479.

Amino acid sequences for entries named in this document (tags omitted).
UniProt Q7Z2W4: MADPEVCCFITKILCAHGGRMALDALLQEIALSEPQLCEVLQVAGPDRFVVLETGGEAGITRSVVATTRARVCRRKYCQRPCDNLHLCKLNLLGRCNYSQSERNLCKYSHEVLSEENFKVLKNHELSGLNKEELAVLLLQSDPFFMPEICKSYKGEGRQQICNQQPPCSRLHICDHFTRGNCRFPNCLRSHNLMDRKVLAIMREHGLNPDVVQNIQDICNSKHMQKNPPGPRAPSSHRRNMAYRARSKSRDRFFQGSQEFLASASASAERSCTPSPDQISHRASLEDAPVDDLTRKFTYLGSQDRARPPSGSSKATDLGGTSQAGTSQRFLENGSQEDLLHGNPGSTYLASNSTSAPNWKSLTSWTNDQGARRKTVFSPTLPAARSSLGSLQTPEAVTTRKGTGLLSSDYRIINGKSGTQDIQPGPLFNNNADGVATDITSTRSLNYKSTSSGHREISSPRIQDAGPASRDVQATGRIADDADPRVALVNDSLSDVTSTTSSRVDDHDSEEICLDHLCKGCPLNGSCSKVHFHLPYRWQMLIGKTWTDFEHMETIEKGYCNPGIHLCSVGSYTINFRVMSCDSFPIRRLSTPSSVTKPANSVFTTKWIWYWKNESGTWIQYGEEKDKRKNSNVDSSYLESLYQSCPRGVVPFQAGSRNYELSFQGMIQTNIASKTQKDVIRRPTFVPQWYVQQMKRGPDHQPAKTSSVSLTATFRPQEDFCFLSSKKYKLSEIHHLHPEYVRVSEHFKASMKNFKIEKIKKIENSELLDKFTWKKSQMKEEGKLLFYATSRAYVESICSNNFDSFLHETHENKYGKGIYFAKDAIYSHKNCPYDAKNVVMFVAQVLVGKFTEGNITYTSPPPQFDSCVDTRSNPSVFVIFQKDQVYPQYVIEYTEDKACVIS

B1: RNA binding motif protein 14 (protein, UniProt Q96PK6-1 1-669)
chain: MKIFVGNVDGADTTPEELAALFAPYGTVMSCAVMKQFAFVHMRENAGALRAIEALHGHELRPGRALVVEMSRPRPLNTWKIFVGNVSAACTSQELRSLFERRGRVIECDVVKDYAFVHMEKEADAKAAIAQLNGKEVKGKRINVELSTKGQKKGPGLAVQSGDKTKKPGAGDTAFPGTGGFSATFDYQQAFGNSTGGFDGQARQPTPPFFGRDRSPLRRSPPRASYVAPLTAQPATYRAQPSVSLGAAYRAQPSASLGVGYRTQPMTAQAASYRAQPSVSLGAPYRGQLASPSSQSAAASSLGPYGGAQPSASALSSYGGQAAAASSLNSYGAQGSSLASYGNQPSSYGAQAASSYGVRAAASSYNTQGAASSLGSYGAQAASYGAQSAASSLAYGAQAASYNAQPSASYNAQSAPYAAQQAASYSSQPAAYVAQPATAAAYASQPAAYAAQATTPMAGSYGAQPVVQTQLNSYGAQASMGLSGSYGAQSAAAATGSYGAAAAYGAQPSATLAAPYRTQSSASLAASYAAQQHPQAAASYRGQPGNAYDGAGQPSAAYLSMSQGAVANANSTPPPYERTRLSPPRASYDDPYKKAVAMSKRYGSDRRLAELSDYRRLSESQLSFRRSPTKSSLDYRRLPDAHSDYARYSGSYNDYLRAAQMHSGYQRRM
B2: General transcription factor IIIC, polypeptide 3, 102kDa (protein, UniProt Q9Y5Q9-1 1-886)
chain: MSGFSPELIDYLEGKISFEEFERRREERKTREKKSLQEKGKLSAEENPDDSEVPSSSGINSTKSQDKDVNEGETSDGVRKSVHKVFASMLGENEDDEEEEEEEEEEEEEEETPEQPTAGDVFVLEMVLNRETKKMMKEKRPRSKLPRALRGLMGEANIRFARGEREEAILMCMEIIRQAPLAYEPFSTLAMIYEDQGDMEKSLQFELIAAHLNPSDTEEWVRLAEMSLEQDNIKQAIFCYTKALKYEPTNVRYLWERSSLYEQMGDHKMAMDGYRRILNLLSPSDGERFMQLARDMAKSYYEANDVTSAINIIDEAFSKHQGLVSMEDVNIAAELYISNKQYDKALEIITDFSGIVLEKKTSEEGTSEENKAPENVTCTIPDGVPIDITVKLMVCLVHLNILEPLNPLLTTLVEQNPEDMGDLYLDVAEAFLDVGEYNSALPLLSALVCSERYNLAVVWLRHAECLKALGYMERAAESYGKVVDLAPLHLDARISLSTLQQQLGQPEKALEALEPMYDPDTLAQDANAAQQELKLLLHRSTLLFSQGKMYGYVDTLLTMLAMLLKVAMNRAQVCLISSSKSGERHLYLIKVSRDKISDSNDQESANCDAKAIFAVLTSVLTKDDWWNLLLKAIYSLCDLSRFQEAELLVDSSLEYYSFYDDRQKRKELEYFGLSAAILDKNFRKAYNYIRIMVMENVNKPQLWNIFNQVTMHSQDVRHHRFCLRLMLKNPENHALCVLNGHNAFVSGSFKHALGQYVQAFRTHPDEPLYSFCIGLTFIHMASQKYVLRRHALIVQGFSFLNRYLSLRGPCQESFYNLGRGLHQLGLIHLAIHYYQKALELPPLVVEGIELDQLDLRRDIAYNLSLIYQSSGNTGMAQTLLYTYCSI
B3: Pyrroline-5-carboxylate reductase-like (protein, UniProt Q53H96-1 1-274)
chain: MAAAEPSPRRVGFVGAGRMAGAIAQGLIRAGKVEAQHILASAPTDRNLCHFQALGCRTTHSNQEVLQSCLLVIFATKPHVLPAVLAEVAPVVTTEHILVSVAAGVSLSTLEELLPPNTRVLRVLPNLPCVVQEGAIVMARGRHVGSSETKLLQHLLEACGRCEEVPEAYVDIHTGLSGSGVAFVCAFSEALAEGAVKMGMPSSLAHRIAAQTLLGTAKMLLHEGQHPAQLRSDVCTPGGTTIYGLHALEQGGLRAATMSAVEAATCRAKELSRK

These binders were tested against ZAP-L-FL (FLAG-tagged ZAP-L) (human) (UniProt Q7Z2W4) (assay: affinity purification with mass spectrometry; ZAP-L-FL or empty vector transfected in 293T; IP with α-FLAG agarose from whole cell lysates (sonication) in the presence or absence of 30 μg/ml RNase; tandem MS; hits: 3 or more peptides, two replicate IPs, not in vector control).

Row | binding | Binder
1 | binds | B1
2 | binds | B2
3 | binds | B3

These are yes or no findings as the source states them, for the method shown. Binding seen in cells or lysates may run through a third protein. Here binding means that the protein was enriched with, or labelled near, the bait; the list need not be complete.
